# The other results are listed elsewhere or left out.
# By UniProt entry, the sequences of proteins in these tests, tags left out. Where a name states a change or a piece, a line headed by the entry shows the natural chain unless it says otherwise.
# UniProt O43633: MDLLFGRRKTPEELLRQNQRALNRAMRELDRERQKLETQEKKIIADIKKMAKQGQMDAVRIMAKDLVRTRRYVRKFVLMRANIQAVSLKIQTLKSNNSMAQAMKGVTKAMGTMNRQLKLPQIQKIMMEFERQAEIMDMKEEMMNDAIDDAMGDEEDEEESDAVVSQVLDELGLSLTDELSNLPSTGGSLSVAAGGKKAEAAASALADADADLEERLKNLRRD
# UniProt Q9BWS9: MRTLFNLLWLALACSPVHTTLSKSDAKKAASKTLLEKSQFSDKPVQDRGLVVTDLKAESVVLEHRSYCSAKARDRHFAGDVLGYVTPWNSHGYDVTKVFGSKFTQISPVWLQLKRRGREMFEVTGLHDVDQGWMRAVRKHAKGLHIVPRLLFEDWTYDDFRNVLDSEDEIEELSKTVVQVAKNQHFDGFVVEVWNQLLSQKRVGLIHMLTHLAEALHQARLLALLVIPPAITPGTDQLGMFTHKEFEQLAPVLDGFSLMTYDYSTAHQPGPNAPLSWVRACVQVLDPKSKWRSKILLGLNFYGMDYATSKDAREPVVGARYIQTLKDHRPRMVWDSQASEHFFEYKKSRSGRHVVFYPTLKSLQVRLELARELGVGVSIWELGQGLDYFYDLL
# UniProt Q5VV42: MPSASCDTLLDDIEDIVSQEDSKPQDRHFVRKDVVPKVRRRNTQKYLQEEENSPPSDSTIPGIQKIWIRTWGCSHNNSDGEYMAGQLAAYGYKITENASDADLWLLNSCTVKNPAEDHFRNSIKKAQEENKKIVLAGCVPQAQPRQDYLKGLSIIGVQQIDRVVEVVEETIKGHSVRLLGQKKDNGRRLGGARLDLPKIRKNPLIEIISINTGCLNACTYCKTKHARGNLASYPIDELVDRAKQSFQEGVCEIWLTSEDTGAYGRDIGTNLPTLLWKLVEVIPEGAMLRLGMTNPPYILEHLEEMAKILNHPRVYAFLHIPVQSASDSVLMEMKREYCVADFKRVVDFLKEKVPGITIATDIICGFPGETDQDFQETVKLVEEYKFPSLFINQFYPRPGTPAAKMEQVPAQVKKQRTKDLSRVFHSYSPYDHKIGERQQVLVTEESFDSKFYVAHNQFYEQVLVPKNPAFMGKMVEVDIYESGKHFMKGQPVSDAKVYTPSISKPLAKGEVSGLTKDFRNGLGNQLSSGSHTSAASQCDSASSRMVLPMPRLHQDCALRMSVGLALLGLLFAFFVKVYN
# UniProt Q9HD42: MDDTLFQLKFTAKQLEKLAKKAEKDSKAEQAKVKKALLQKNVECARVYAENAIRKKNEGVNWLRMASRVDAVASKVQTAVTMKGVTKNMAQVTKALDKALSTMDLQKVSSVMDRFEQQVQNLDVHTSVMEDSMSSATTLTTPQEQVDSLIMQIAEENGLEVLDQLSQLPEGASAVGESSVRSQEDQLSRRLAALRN
# UniProt Q9BS16: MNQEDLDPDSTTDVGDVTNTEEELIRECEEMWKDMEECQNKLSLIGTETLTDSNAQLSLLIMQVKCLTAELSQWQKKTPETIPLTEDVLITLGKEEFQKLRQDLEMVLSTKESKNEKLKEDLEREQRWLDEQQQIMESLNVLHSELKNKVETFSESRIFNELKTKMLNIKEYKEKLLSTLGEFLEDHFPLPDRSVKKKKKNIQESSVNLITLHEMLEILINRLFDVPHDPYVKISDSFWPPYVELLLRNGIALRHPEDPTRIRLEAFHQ
# UniProt Q9P2B7: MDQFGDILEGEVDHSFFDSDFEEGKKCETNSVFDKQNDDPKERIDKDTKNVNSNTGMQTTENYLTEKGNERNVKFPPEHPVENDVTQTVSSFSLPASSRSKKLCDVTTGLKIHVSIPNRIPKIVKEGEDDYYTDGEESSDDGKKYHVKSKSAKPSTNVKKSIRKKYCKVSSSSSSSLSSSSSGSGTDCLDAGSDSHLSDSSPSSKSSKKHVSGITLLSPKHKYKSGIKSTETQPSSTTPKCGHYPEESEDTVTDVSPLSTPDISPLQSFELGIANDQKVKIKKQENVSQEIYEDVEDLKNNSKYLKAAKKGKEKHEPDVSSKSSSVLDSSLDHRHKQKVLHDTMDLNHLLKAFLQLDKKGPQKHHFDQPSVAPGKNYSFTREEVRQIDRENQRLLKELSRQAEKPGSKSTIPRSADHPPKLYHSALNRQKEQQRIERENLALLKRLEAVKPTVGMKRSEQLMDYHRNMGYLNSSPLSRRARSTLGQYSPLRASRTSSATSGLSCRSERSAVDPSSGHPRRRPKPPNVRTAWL
# UniProt Q8N4Q1: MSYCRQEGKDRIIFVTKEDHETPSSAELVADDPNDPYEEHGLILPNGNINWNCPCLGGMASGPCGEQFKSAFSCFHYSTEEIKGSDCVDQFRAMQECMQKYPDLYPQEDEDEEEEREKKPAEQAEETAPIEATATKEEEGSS
# UniProt O75956: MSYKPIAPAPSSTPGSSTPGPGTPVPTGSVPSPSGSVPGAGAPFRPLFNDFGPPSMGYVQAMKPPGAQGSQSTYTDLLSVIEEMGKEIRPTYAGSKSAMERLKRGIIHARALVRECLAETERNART
# UniProt O00748: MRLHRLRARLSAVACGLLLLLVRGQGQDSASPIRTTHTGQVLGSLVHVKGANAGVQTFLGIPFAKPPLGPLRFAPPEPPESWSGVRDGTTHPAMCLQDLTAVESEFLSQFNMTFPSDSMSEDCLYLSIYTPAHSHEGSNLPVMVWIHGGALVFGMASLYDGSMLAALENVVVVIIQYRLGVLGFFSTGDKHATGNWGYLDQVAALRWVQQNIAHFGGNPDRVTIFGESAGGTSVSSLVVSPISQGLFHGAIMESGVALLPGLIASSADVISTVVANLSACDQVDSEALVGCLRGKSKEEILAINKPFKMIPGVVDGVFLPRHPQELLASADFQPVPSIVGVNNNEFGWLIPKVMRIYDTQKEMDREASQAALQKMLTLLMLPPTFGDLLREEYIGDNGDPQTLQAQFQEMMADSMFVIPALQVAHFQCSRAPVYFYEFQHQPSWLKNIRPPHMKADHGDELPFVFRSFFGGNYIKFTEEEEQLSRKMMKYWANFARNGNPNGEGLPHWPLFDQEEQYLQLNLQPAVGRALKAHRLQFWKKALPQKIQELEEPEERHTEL
# UniProt Q9H444: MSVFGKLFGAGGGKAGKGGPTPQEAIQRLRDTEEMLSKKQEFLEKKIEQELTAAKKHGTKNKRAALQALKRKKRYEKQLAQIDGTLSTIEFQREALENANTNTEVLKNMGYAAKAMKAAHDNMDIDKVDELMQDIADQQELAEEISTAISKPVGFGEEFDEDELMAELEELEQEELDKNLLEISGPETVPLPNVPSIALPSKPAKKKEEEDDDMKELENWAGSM
# UniProt Q9C0F1: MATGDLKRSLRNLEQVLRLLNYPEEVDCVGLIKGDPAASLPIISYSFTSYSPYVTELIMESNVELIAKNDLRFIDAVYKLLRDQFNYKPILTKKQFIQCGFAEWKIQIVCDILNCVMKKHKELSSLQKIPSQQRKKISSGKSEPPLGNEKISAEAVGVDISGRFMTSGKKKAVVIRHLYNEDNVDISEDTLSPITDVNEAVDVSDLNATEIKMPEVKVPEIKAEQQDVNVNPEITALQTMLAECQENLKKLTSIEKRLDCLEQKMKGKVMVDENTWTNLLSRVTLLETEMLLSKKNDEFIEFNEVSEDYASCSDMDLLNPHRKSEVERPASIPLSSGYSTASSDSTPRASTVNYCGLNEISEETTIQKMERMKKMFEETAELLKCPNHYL
# UniProt Q8WUX2: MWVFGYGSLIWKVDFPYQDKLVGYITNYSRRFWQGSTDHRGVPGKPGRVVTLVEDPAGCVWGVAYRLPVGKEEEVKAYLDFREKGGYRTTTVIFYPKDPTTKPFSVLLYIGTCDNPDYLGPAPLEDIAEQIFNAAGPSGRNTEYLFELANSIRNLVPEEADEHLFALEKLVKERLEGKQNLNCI
# UniProt Q00537: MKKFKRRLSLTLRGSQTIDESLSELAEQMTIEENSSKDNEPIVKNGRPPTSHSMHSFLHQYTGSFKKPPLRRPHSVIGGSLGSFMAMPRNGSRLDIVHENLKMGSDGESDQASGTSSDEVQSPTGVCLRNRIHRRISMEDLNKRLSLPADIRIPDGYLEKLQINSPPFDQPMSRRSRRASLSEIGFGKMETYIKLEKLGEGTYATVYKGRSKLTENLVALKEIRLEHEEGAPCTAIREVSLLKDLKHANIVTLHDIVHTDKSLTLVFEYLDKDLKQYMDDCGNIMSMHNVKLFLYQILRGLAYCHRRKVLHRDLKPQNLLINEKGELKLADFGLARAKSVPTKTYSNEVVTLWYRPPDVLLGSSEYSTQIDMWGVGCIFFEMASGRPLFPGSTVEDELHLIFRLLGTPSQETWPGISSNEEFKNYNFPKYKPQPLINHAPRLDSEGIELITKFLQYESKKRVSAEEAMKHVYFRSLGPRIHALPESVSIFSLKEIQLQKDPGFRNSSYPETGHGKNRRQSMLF
# UniProt Q96G28: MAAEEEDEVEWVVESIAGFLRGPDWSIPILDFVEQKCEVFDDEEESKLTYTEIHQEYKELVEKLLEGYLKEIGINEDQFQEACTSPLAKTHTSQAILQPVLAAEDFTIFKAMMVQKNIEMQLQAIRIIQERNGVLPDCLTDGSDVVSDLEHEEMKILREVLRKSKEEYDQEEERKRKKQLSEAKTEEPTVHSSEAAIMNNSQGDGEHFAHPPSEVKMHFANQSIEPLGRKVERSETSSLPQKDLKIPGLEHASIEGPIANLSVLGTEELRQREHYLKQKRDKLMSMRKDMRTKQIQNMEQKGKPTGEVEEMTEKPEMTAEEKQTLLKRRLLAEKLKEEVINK
# UniProt Q9H3Q1: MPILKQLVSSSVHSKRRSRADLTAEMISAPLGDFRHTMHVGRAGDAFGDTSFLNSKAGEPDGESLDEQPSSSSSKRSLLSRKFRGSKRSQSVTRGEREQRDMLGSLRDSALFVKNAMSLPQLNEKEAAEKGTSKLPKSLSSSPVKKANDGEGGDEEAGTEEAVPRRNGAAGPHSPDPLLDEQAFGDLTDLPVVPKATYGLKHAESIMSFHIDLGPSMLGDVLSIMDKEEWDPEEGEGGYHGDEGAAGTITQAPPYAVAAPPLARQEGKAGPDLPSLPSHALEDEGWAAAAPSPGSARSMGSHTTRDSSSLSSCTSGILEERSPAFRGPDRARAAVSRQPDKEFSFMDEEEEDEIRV
# UniProt Q6IPU0: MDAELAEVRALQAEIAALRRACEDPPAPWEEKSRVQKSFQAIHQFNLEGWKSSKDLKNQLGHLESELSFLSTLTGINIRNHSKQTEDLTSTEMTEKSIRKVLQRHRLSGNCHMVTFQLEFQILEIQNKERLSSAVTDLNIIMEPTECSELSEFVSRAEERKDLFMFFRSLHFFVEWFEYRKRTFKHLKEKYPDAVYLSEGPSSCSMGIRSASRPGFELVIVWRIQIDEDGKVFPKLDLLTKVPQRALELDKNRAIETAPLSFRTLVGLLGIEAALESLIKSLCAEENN
# UniProt Q00534, whole entry, looked up: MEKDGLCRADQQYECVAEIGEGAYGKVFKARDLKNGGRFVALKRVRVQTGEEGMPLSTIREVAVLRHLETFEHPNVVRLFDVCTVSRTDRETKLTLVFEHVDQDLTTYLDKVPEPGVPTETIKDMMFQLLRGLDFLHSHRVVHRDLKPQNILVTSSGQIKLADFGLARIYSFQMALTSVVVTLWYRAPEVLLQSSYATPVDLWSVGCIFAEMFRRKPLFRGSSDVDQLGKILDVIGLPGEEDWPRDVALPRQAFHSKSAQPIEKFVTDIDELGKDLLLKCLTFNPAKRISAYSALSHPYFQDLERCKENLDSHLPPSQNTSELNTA
# UniProt Q13112, whole entry, looked up: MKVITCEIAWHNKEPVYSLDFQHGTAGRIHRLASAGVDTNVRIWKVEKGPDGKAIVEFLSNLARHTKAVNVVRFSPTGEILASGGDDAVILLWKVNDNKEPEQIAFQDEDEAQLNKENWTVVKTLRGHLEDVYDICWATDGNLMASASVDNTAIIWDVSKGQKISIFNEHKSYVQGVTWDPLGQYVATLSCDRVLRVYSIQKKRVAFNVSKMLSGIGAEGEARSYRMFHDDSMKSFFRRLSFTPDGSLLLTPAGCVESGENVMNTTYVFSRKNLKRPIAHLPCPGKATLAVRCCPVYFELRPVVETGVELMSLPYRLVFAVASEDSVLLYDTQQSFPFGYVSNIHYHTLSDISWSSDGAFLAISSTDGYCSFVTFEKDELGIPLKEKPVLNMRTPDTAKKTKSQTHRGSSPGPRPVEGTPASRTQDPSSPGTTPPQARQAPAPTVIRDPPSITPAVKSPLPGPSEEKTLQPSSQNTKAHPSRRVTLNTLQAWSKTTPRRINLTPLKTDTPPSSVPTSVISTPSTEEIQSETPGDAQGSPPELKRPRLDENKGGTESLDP
# UniProt Q9BY43: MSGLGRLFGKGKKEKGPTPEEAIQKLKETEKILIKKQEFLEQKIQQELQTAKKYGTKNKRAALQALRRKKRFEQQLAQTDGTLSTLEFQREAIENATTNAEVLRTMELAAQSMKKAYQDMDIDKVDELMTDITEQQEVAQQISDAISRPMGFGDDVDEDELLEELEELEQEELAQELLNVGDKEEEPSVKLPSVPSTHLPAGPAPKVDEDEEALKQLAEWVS
# UniProt Q9UKJ5: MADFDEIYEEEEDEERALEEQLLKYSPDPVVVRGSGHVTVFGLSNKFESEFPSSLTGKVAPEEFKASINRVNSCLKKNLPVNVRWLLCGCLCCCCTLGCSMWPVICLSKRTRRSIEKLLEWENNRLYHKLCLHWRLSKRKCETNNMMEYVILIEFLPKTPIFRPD
# Compound: C1=CC=C(C=C1)[C@H](COC2=CC3=C(C=C2)NC(=O)N3)NC(=O)C4=CC=CN(C4=O)CC5=CC(=C(C=C5)F)F
# Assay: log2 fold change, soluble protein after heating vs DMSO (PISA); higher = thermal stabilisation; K562 cells, 10 uM, 30 min; active = over 0.2 and 3.5 SD of the protein, either way, in both replicates (recomputed)
# Procedure, shortened: (§1)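 Values are thermal stability changes relative to control samples and are taken from duplicates. They are stated as log2 fold changes. Before quantification by TMTpro 16plex LC-MS/MS with equalised channel sums, K562 cells at 2×10^6 cells/mL were treated with 10 μM compound for 30 min, heated in aliquots for 3 min across 48°C-58°C, pooled, extracted in PBS with 0.5% NP-40 at 4°C, and centrifuged at 21,000xg for 90 min to give the soluble supernatant.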
row,Target,log2 fold change
1,CDIPT (UniProt O14735),inactive: 0.013
2,CHD5 (UniProt Q8TDI0),inactive: -0.006
3,CHAF1A (UniProt Q13111),inactive: 0.045
4,CFB (UniProt P00751),inactive: -0.029
5,CHMP2A (UniProt O43633),inactive: -0.011
6,CHID1 (UniProt Q9BWS9),inactive: 0.034
7,CDKAL1 (UniProt Q5VV42),inactive: -0.054
8,CDK16 isoform 2 (UniProt Q00536),inactive: -0.009
9,CEP250 (UniProt Q9BV73),inactive: 0.124
10,CDYL (UniProt Q9Y232),inactive: -0.012
11,CHMP1A (UniProt Q9HD42),inactive: 0.005
12,CENPK (UniProt Q9BS16),inactive: 0.013
13,CFAP97 (UniProt Q9P2B7),inactive: 0.055
14,CEP76 (UniProt Q8TAP6),inactive: 0.079
15,CHCHD4 isoform 2 (UniProt Q8N4Q1),inactive: 0.08
16,CDK2AP2 (UniProt O75956),inactive: 0.026
17,CES2 isoform 4 (UniProt O00748),inactive: 0.041
18,CHMP4B (UniProt Q9H444),inactive: -0.015

row,Target,log2 fold change
1,CEP44 (UniProt Q9C0F1),inactive: -0.069
2,CFH (UniProt P08603),inactive: 0
3,CEPT1 (UniProt Q9Y6K0),inactive: -0.064
4,CHAC2 (UniProt Q8WUX2),inactive: -0.036
5,CDV3 (UniProt Q9UKY7),inactive: 0.008
6,CDK17 isoform 2 (UniProt Q00537),inactive: -0.095
7,CEBPB (UniProt P17676),inactive: 0.09
8,CFAP36 isoform 2 (UniProt Q96G28),inactive: -0.042
9,CDK4 (UniProt P11802),inactive: 0.012
10,CDC42EP4 (UniProt Q9H3Q1),inactive: -0.014
11,CDK12 (UniProt Q9NYV4),inactive: 0.102
12,CENPP (UniProt Q6IPU0),inactive: 0.021
13,CDS1 (UniProt Q92903),inactive: -0.029
14,CDKN1B (UniProt P46527),inactive: -0.009
15,CDK6 (UniProt Q00534),inactive: -0.005
16,CHAF1B (UniProt Q13112),inactive: 0.034
17,CHMP4A isoform 2 (UniProt Q9BY43),inactive: -0.011
18,CHIC2 (UniProt Q9UKJ5),inactive: -0.072

# Compound: CC1=C(SC2=C1C(=N[C@H](C3=NN=C(N32)C)CC(=O)N)C4=CC=C(C=C4)Cl)C
# Assay: as above
# Procedure, shortened: as §1
row,Target,log2 fold change
1,CDIPT (UniProt O14735),inactive: -0.005
2,CHD5 (UniProt Q8TDI0),inactive: 0.041
3,CHAF1A (UniProt Q13111),inactive: -0.026
4,CFB (UniProt P00751),inactive: -0.014
5,CHMP2A (UniProt O43633),inactive: 0.02
6,CHID1 (UniProt Q9BWS9),inactive: -0.024
7,CDKAL1 (UniProt Q5VV42),inactive: 0.001
8,CDK16 isoform 2 (UniProt Q00536),inactive: 0.026
9,CEP250 (UniProt Q9BV73),inactive: -0.074
10,CDYL (UniProt Q9Y232),inactive: -0.005
11,CHMP1A (UniProt Q9HD42),inactive: 0.022
12,CENPK (UniProt Q9BS16),inactive: -0.162
13,CFAP97 (UniProt Q9P2B7),inactive: -0.304
14,CEP76 (UniProt Q8TAP6),inactive: 0.067
15,CHCHD4 isoform 2 (UniProt Q8N4Q1),inactive: 0.205
16,CDK2AP2 (UniProt O75956),inactive: -0.017
17,CES2 isoform 4 (UniProt O00748),inactive: -0.069
18,CHMP4B (UniProt Q9H444),inactive: -0.004

row,Target,log2 fold change
1,CEP44 (UniProt Q9C0F1),inactive: -0.082
2,CFH (UniProt P08603),inactive: -0.097
3,CEPT1 (UniProt Q9Y6K0),inactive: 0.105
4,CHAC2 (UniProt Q8WUX2),inactive: -0.034
5,CDV3 (UniProt Q9UKY7),inactive: 0.03
6,CDK17 isoform 2 (UniProt Q00537),inactive: -0.006
7,CEBPB (UniProt P17676),inactive: 0.222
8,CFAP36 isoform 2 (UniProt Q96G28),inactive: 0.01
9,CDK4 (UniProt P11802),inactive: 0.128
10,CDC42EP4 (UniProt Q9H3Q1),inactive: 0.041
11,CDK12 (UniProt Q9NYV4),inactive: -0.425
12,CENPP (UniProt Q6IPU0),inactive: -0.052
13,CDS1 (UniProt Q92903),inactive: -0.103
14,CDKN1B (UniProt P46527),inactive: -0.029
15,CDK6 (UniProt Q00534),inactive: -0.002
16,CHAF1B (UniProt Q13112),inactive: 0.017
17,CHMP4A isoform 2 (UniProt Q9BY43),inactive: 0.035
18,CHIC2 (UniProt Q9UKJ5),inactive: 0.052
